This data set in a line: general procedure: solution-phase peptide synthesis; HATU/DIEA (EDC/HOBt for Int-5b). The conditions noted are these: coupling step, two steps.

As to penta-Boc-PMB-decapeptide, the step yield was 94% (two steps).

The values are drawn from patent US20230190950A1 (Cidara Therapeutics, Inc., priority 2017, published 2023).
